Assay results from publication PMC8593051.
Results are given in words; binding and its absence hold for the method and conditions named. Binding seen in cells or lysates may run through a third protein.

Molecular target: T1, WDR63 (endogenous, mouse testicular extracts) (mouse (endogenous in testis)) (UniProt B2RY71)
T1 sequence: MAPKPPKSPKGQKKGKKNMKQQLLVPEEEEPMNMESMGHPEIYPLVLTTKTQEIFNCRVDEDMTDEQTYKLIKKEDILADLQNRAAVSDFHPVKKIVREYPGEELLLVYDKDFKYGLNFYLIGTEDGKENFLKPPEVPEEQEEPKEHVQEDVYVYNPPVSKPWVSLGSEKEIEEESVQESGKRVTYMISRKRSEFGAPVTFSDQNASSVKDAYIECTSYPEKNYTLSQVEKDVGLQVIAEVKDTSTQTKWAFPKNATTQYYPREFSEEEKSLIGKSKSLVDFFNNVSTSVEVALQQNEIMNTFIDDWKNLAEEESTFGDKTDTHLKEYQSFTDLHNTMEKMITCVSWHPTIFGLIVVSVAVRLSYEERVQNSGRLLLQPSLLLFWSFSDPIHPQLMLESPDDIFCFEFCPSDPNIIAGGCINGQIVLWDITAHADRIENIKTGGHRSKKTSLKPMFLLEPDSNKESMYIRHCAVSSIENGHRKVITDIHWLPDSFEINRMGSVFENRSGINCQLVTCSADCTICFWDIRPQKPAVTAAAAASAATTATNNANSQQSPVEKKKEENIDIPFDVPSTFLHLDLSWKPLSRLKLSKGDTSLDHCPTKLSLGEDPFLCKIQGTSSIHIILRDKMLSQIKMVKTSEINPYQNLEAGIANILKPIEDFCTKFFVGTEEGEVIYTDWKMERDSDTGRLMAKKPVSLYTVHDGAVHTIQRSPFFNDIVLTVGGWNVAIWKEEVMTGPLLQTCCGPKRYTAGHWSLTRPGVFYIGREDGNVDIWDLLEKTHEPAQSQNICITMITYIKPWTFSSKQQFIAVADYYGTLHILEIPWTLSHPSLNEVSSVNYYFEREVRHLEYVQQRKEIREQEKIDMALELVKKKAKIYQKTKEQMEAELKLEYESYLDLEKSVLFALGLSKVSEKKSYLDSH
Assay: co-IP; co-IP followed by immunoblotting for DNAH2 and DNAH10 (Supplementary Fig. S5d); sample and precipitating antibody not given

- binding: no binding
Substance: DNAH10
